From paper PMC10976834
These are yes or no findings as the source states them, for the method shown. Binding seen in cells or lysates may run through a third protein. Some binding calls cover weakened binding; strength is not graded here.

Protein sequences, listed by entry. Tags and fused reporters are not part of them.
UniProt P11142: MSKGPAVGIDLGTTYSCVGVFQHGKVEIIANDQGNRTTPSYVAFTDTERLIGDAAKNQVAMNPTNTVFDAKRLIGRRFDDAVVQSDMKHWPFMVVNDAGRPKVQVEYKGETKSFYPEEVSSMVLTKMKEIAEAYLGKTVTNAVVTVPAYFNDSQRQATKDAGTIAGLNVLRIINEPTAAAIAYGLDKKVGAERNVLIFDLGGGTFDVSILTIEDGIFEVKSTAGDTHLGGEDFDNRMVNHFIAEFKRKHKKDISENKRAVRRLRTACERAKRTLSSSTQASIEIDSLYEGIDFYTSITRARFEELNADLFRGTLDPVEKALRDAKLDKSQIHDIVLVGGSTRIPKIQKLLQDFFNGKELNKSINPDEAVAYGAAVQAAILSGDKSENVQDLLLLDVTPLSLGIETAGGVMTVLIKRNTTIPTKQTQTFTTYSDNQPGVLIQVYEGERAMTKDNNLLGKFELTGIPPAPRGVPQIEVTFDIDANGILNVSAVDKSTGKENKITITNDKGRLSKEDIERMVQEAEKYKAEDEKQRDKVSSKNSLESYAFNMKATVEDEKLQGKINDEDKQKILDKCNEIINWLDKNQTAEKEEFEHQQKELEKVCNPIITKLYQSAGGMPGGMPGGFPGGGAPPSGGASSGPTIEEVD
UniProt P19096: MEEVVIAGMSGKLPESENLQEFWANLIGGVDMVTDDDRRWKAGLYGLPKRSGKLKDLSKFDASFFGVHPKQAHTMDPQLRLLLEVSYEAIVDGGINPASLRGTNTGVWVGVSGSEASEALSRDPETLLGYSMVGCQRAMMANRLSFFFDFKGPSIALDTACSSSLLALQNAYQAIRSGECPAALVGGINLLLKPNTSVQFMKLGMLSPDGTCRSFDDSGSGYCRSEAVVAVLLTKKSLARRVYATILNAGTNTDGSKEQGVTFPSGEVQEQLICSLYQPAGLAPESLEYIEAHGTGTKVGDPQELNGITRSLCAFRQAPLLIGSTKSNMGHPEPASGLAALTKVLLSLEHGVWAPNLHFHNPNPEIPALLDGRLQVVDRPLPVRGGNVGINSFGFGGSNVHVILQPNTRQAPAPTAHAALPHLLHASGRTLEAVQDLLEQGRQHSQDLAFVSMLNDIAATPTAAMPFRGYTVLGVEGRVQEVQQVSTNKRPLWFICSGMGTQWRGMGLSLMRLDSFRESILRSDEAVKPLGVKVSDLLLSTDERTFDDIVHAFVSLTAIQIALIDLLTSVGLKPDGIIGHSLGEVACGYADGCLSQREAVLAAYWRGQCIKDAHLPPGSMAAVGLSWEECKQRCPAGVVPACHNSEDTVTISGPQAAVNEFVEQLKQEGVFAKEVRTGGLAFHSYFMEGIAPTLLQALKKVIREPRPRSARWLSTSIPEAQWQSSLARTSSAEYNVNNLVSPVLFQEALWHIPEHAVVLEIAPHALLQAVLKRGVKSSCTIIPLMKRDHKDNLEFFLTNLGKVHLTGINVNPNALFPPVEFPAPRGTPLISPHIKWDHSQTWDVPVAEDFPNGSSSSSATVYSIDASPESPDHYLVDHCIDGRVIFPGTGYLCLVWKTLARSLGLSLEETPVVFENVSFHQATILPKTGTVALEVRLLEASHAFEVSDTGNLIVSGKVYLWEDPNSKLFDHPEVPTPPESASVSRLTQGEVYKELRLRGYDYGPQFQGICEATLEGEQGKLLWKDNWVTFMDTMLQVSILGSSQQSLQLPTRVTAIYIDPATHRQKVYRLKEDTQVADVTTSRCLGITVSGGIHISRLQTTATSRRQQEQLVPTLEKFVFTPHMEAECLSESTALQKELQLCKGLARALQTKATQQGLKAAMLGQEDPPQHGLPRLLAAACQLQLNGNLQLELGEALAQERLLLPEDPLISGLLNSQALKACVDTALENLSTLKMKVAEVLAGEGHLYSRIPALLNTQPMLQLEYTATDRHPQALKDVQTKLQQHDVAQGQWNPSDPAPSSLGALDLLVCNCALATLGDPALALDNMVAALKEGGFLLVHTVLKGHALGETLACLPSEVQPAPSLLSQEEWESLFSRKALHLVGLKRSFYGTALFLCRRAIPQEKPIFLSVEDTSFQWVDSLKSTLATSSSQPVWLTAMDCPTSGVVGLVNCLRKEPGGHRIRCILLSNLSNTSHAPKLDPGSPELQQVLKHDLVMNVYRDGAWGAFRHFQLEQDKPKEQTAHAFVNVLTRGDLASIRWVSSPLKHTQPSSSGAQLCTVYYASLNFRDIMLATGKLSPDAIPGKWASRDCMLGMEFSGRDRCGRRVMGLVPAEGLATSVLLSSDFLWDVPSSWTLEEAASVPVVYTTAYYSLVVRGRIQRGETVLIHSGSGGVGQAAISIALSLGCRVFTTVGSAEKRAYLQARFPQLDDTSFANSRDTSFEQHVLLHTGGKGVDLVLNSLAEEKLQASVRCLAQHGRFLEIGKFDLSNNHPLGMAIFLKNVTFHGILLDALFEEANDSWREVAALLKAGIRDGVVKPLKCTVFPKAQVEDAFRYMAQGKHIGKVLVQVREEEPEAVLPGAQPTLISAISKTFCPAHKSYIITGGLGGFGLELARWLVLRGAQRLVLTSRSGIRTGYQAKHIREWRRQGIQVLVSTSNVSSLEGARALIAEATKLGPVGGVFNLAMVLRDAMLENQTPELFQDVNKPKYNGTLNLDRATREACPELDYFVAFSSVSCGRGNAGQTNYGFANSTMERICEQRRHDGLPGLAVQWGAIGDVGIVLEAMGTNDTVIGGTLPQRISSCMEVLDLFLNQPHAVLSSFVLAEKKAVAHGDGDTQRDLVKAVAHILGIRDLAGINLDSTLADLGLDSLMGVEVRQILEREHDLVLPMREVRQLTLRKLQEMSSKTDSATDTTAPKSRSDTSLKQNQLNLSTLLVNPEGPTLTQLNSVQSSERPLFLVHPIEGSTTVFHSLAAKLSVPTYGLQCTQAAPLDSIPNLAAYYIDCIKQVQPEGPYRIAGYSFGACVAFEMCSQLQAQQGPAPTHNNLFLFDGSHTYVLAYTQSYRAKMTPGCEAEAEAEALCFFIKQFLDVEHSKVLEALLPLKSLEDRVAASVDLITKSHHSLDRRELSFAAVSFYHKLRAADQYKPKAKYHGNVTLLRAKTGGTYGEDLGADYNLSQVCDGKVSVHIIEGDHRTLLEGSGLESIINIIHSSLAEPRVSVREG

Molecular target: GFP-HSC70 (expressed in SN4741 cells) (UniProt P11142)
Test: co-IP; GFP or GFP-HSC70 transiently transfected into SN4741 and HEK293T cells for 48 h; lysis in 10 mM Tris/HCl pH 7.5, 150 mM NaCl, 0.5 mM EDTA, 0.5% NP40; anti-GFP agarose beads, 4 °C, 2 h; western blot

binding: binds
Substance: Fatty acid synthase (Fasn), mouse (from UniProt P19096 1-2504) (enzyme)
